Data on two sequences can be found in publication PMC10192343, “Structural and functional analyses of the echinomycin resistance conferring protein Ecm16 from Streptomyces lasalocidi” (Scientific Reports, 2023).

Construct, isoform or probe ends are uncertain for at least one entry. For some assays here: No signal at the amounts used counts as a negative. For some assays here: Weaker means in comparison with the reference protein, sequence or condition of that experiment. For some assays here: Protein sequences can lack the tags named with them.

The target in data set [1] is Ecm16-ΔID (Streptomyces lasalocidi) (UniProt Q0X0A9). Description: EMSA. The conditions noted are these: 100-300 nM protein, EMSA: same buffer plus 0.1 mg/ml BSA, 50 nM DNA, echinomycin:DNA 1.1:1, 15 min at room temperature, 6% native gel at 4 °C, recombinant protein. On the technique in general: Mobility shift assays separate free from complexed probe on a gel.
Data set [2] addresses T1, Ecm16 (Streptomyces lasalocidi) (UniProt Q0X0A9).
T1 sequence (looked up, limits assumed): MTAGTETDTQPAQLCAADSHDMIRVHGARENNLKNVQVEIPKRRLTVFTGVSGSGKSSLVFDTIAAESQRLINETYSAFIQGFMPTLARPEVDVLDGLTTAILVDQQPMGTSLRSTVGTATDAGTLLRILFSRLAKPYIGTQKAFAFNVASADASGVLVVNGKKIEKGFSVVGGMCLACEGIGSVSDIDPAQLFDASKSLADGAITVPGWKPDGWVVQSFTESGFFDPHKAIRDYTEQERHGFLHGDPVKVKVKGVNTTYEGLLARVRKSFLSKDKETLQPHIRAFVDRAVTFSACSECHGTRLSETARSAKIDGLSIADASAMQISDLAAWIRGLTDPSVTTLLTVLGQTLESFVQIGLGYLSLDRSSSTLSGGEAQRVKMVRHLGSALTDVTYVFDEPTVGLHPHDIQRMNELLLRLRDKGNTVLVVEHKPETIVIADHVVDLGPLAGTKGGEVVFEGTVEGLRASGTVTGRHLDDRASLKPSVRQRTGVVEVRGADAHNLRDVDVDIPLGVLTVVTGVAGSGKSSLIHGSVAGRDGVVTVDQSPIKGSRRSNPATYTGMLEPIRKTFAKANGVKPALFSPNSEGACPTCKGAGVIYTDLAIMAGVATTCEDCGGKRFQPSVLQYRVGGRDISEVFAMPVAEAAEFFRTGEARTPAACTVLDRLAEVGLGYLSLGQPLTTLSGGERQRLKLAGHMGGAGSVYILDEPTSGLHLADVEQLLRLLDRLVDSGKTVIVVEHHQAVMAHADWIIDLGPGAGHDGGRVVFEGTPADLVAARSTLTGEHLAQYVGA
Description: EMSA. The conditions noted are these: no echinomycin, 100-300 nM protein; EMSA: same buffer plus 0.1 mg/ml BSA, 50 nM DNA, echinomycin:DNA 1.1:1, 15 min at room temperature, 6% native gel at 4 °C; recombinant protein.

Data set [3] deals with Ecm16-ΔID (Streptomyces lasalocidi) (UniProt Q0X0A9). Description: fluorescence polarization. To be noted: undetectable, up to 512 nM protein, FP: 50 mM HEPES pH 7.5, 50 mM NaCl, 50 nM DNA, 4-512 nM protein, temperature not stated, label: 5'-FAM on both strands. In general terms: In fluorescence polarisation assays a small probe gives low polarisation when free and higher when bound to something large.

Turning to “AGTGATCAGTGGTTACGTAACCACTGATCACT (double strand) [32-bp DNA]”, the figures for the binding result in data set [1] (echinomycin-bound DNA), in data set [1] (no echinomycin) and in data set [2] were “no binding”, “no binding” and “binds more weakly”, respectively.

Take “AGTGATCAGTGGTTACGTAACCACTGATCACT (double strand) [FAM 32-bp DNA]”: the binding result in data set [3] (echinomycin-bound DNA, recombinant protein) is reported as “no binding”; in data set [3] (no echinomycin, recombinant …) it was “no binding”.
